The target in assay [1] is T1, Vps1–GFP (S. cerevisiae) (UniProt P21576).
T1 sequence: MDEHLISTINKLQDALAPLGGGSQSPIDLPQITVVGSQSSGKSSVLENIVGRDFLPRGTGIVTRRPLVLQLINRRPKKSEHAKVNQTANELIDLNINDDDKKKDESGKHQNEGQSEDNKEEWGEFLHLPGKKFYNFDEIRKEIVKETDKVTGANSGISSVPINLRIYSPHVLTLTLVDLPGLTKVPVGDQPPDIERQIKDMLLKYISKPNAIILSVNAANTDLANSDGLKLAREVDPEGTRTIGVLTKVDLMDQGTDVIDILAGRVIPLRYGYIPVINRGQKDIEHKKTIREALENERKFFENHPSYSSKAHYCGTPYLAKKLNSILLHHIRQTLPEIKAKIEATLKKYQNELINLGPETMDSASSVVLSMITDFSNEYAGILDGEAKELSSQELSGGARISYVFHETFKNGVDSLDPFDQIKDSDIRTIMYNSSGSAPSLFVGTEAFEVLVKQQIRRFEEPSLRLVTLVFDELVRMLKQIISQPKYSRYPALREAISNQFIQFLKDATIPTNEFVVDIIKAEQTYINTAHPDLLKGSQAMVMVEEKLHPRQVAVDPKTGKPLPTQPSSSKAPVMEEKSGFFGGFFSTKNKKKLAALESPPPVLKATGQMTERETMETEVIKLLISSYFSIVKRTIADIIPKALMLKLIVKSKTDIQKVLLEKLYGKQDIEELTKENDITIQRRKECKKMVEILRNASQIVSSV
The assay is described as follows: co-IP; GFP fusions precipitated from yeast lysate with GFP-Trap agarose (GFP–nanobody beads, ChromoTek), 2 h at 4°C; lysis buffer 50 mM HEPES-KOH pH 7.6, 150 mM KCl, 100 mM β-glycerol phosphate, 25 mM NaF, 1 mM EGTA, 1 mM MgCl2, 0.15% Tween-20; western blot with anti-GFP, anti-Vps1 and PAP. For orientation: Immunoblotting shows a protein as a band on a membrane.

The target in assay [2] is T2, Vn–Atg11 (S. cerevisiae) (UniProt Q12527).
T2 sequence: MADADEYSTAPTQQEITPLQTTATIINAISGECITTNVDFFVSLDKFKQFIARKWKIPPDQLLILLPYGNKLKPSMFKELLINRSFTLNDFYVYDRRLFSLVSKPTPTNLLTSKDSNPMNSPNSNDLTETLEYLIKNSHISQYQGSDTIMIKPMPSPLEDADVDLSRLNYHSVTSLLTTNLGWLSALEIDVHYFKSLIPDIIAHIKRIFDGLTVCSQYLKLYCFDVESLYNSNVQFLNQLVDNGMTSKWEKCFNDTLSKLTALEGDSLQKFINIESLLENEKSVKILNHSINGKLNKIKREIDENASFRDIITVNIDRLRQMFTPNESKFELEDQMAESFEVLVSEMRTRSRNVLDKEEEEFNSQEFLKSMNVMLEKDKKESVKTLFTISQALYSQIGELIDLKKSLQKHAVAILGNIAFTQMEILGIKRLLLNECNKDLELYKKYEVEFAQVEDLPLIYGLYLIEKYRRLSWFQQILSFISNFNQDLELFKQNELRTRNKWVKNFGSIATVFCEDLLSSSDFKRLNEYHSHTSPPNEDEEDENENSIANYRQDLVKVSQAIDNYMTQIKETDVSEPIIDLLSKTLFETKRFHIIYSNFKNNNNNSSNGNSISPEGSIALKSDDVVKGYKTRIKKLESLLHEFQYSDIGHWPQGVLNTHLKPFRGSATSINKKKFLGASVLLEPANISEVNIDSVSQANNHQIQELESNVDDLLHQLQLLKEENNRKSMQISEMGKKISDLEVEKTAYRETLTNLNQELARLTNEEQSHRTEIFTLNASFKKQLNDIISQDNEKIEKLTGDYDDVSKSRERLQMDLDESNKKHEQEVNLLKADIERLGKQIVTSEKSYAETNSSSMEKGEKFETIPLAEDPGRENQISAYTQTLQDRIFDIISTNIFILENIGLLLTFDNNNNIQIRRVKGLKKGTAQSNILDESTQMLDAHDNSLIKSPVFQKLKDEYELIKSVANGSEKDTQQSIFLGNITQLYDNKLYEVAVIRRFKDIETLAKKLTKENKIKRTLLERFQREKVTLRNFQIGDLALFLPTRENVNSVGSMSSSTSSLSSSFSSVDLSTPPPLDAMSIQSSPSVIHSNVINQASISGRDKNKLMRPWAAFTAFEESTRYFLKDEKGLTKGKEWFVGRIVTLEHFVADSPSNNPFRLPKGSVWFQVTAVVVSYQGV
The assay is described as follows: split reporter; bimolecular fluorescence complementation of Vn–Atg11 and Vps1–Vc (Venus) in WT, atg36Δ and pex27Δ yeast cells expressing HcRed–PTS1; grown overnight on oleate-containing medium, then starved 6 h on 2% glucose-containing medium lacking nitrogen.

These are yes or no findings as the source states them, for the method shown. In cells and extracts the contact can be indirect. Some results given as binding are weak or reduced against the parent protein; the word gives no strength. For part of these data: Tags and fused reporters may be left off the sequences shown.

B1: Pex27–TAP (protein, UniProt Q08580 1-376)
chain: MTSDPVNTNISSPTLTDRNADESWELLKREFNTLFSNLKTDSKEEGNFTDNKGVIAKKPIVLQDNDDSDFTQNQGKVATATSTTSDRSFKRTLGSIEMKKRYVKKNCQAKFVFNTLEGKEVCSKILQHTLGLLSLLLLTRKIRLLNFSSKLRLVIQQLSLFRYYLRFGNFAINLYKIIKRFRWLREMKKLHYKDQSILFYFKNFRFFDIIEAFYNLTDELILFHKLQSMFGKKNTSHANTNRLMTFVKEQHYILWEVLNILAINKNIEQWRQLIRDEIYLSIYNTSGNAIKEYELKYKLPTNDKVNLELRKNNITLDFYKIILNLLSNLINIKGKRDKYNSELAYEIISVGSGVTELLKLWNRAKVTSANEHTSAV
For B1, the binding result in assay [1] was “binds”.

B2: endogenous Vps1 (protein, UniProt P21576 1-704)
chain: T1 sequence
Consider B2, for which, in assay [1], the binding result is “binds”.

B3: Vps1–Vc (protein, UniProt P21576 1-704)
chain: T1 sequence
For the molecule B3, the binding entry in assay [2] is on record as “binds”.
